Assay results from paper PMC7457494.
Results are given in words; binding and its absence hold for the method and conditions named. In cells and extracts the contact can be indirect. Some entries that bind do so weakly or less than the wild type.

By UniProt entry, the sequences of proteins in these tests, tags left out.
UniProt Q00987: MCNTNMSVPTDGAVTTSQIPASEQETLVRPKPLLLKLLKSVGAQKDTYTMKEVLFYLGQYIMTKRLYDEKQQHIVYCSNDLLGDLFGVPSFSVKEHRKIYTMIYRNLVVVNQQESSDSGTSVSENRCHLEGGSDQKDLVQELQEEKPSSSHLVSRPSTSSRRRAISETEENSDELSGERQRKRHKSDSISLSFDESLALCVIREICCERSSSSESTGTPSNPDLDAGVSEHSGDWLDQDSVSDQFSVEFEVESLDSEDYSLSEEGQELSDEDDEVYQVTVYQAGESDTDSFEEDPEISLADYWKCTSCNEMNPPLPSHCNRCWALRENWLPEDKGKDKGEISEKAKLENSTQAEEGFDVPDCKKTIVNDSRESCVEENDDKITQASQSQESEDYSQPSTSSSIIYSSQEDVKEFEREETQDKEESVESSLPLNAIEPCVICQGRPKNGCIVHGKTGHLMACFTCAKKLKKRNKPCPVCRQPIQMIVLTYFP

Molecular target: Mouse double minute 2 homolog (MDM2) (human (endogenous in A375)) (UniProt Q00987)
Assay: proximity ligation; A375 cells on coverslips, treated with DMSO or 10 uM Nutlin-3 for 24 h, fixed with 4% paraformaldehyde, permeabilized with 0.25% Triton X-100; mouse anti-MDM2 (4B2) with goat anti-CD276, rabbit anti-p53 (CM-1) or rabbit anti-HSP70; Duolink probes; endogenous proteins in situ

binding: binds
B1: cluster of differentiation 276 (CD276/B7-H3) (receptor, UniProt Q5ZPR3 29-534)
chain: LEVQVPEDPVVALVGTDATLCCSFSPEPGFSLAQLNLIWQLTDTKQLVHSFAEGQDQGSAYANRTALFPDLLAQGNASLRLQRVRVADEGSFTCFVSIRDFGSAAVSLQVAAPYSKPSMTLEPNKDLRPGDTVTITCSSYQGYPEAEVFWQDGQGVPLTGNVTTSQMANEQGLFDVHSILRVVLGANGTYSCLVRNPVLQQDAHSSVTITPQRSPTGAVEVQVPEDPVVALVGTDATLRCSFSPEPGFSLAQLNLIWQLTDTKQLVHSFTEGRDQGSAYANRTALFPDLLAQGNASLRLQRVRVADEGSFTCFVSIRDFGSAAVSLQVAAPYSKPSMTLEPNKDLRPGDTVTITCSSYRGYPEAEVFWQDGQGVPLTGNVTTSQMANEQGLFDVHSVLRVVLGANGTYSCLVRNPVLQQDAHGSVTITGQPMTFPPEALWVTVGLSVCLIALLVALAFVCWRKIKQSCEEENAGAEDQDGEGEGSKTALQPLKHSDSKEDDGQEIA
